Reference: PubChem BioAssay AID1338 (Columbia University Molecular Screening Center, 2008)

Amino acid sequences for entries named in this document (tags omitted).
UniProt Q9Y2R2, whole entry, looked up: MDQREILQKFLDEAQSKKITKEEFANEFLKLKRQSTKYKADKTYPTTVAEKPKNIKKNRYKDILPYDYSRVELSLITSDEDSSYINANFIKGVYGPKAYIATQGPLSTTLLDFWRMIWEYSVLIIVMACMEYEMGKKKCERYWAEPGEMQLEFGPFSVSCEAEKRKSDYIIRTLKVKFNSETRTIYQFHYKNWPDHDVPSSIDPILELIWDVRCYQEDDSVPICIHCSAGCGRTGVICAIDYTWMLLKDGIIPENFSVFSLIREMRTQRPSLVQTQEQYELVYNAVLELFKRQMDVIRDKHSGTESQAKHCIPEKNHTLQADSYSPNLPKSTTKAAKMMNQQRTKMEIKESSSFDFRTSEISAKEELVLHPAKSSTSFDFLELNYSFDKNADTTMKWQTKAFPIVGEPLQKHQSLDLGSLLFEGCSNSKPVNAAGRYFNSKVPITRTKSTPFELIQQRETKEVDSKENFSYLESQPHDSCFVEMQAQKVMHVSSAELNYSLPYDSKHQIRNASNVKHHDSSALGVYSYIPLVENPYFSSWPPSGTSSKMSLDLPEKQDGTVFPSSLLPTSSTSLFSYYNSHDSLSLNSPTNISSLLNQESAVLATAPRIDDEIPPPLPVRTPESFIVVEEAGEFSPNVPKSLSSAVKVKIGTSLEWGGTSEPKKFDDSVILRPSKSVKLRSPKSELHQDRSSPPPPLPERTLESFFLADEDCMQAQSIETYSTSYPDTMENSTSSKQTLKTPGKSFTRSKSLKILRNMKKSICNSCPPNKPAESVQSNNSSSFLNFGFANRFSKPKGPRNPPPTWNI

Biological target: Tyrosine-protein phosphatase non-receptor type 22 (Homo sapiens) (UniProt Q9Y2R2)
Assay: LYP phosphatase inhibitors with catalase present, biochemical, catalase added, Infinite200, 384-well (AID 1338)
Conditions: Recombinant LYP, DiFMUP fluorescence, at 10 µM, stronger effect = higher value

inhibition: 68.6%
SMILES: Cc1c2cc(O)c(=O)cc-2oc2cc(O)c(O)cc12
